Experimental findings from PubChem BioAssay AID2685 (National Center for Advancing Translational Sciences (NCATS), 2010) are described below.

This is one part of the list. Further columns of the screen follow, without active or inactive calls. Compounds called inactive in the main read-out are mostly missing here. Potencies come from curve fits of mixed quality, noted in brackets.

The nature of the assay: qHTS Assay for Lipid Storage Modulators in Drosophila S3 Cells.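 For cell number change: cells counted by Cell Tracker Red CMTPX staining in the red channel.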 The following applies: BODIPY lipid droplet fluorescence, 18-24 h; for cell number change: measured here: cell count max response, cells fed with added oleic acid. From the text: NIH Molecular Libraries Probe Production Centers Network [MLPCN] NIH Chemical Genomics Center [NCGC] MLPCN Grant: 1 R03 MH085686-01 Assay Submitter (PI): Beller, Mathias; Max-Planck-Institut fur Biophysikalische Chemie NCGC Assay Overview: Storing lipids as a reservoir for energy or the anabolism of elementary metabolites is a common feature of probably all cells and is conserved from bacteria to humans. The universal cellular lipid storage organelle is the so-called lipid storage droplet (LD). Although ubiquitous, LDs share a simple structure composed of a hydrophobic core that harbors the storage lipids, which is shielded by a droplet-specific phospholipid monolayer to which proteins are attached. The current model of LD biogenesis involves an incorporation of the lipid core into the membrane leaflets of the endoplasmic reticulum (ER) followed by a subsequent budding-like maturation of a LD, which ultimately pinches off. Once released, LD volume can increase by localized lipogenesis or fusion of existing droplet. Storage lipids are re-mobilized enzymatically by lipase activity. Lipase regulation in the adipocyte is heavily studied and involves multiple components including catecholamine signaling, the LD-associated proteins Perilipin and comparative gene identification (CGI-58) and at least two lipases named hormone sensitive lipase (HSL) and adipocyte triglyceride lipase (ATGL). LD regulation outside of the adipocyte is poorly understood and only few components are known. However, there is an urgent need to learn more about ectopic fat depots as mislocalized storage of lipids, for example in the liver or muscle, is an eminent health problem associated with insulin resistance or the metabolic syndrome. We developed a laser-scanning cytometer assay to enable 1,536-well screening and combined the results of the small molecules screen with an RNAi database based on lipid storage.
Triacsin C (Sigma-Aldrich T-4540), an inhibitor of long-chain fatty acyl CoA synthetase that blocks synthesis of triglycerides, was used as a positive control for lipid under-storage. A total of 23 nL of compound solution of different concentrations were transferred to the assay plates using a Kalypsys pin tool equipped with a 1,536-pin array containing 10-nL slotted pins (FP1S10, 0.457-mm diameter, 50.8 mm long; V&P Scientific). One microliter of oleic acid (400 uM) was added, and the plate was lidded with stainless steel rubber gasket lined lids containing pinholes. […] Fluorescence was detected by excitation of the fluorophores with a 488-nm laser on an Acumen Explorer (TTP Lab Tech). The total intensity in channel 2 (500-530 nm) reflected lipid droplet accumulation. Cells were detected using channel 3 (575-640 nm) with 5-um width and 100-um depth filters. The ratio of the number of objects in PMT channel 2 over the number of objects in PMT channel 3 was also calculated. Percent activity was computed relative to an internal control (100% inhibited lipid droplet deposition due to the presence of 20 uM Triacsin C), which was added to 32 wells/plate.

Where [1] appears, read: measured here: lipid fluorescence (Fed channel) AC50, cells fed with added oleic acid.
[2] abbreviates: measured here: cell number channel AC50, cells fed with added oleic acid.

On to `CCOC(=O)c1nnn(-c2nonc2N)c1CNc1ccc(C)c(Br)c1`, for which the cell number change was -7.91%. The AC50 (usually the concentration giving half of the maximal activity seen) under setting [1] was 29.1 µM [rising, partial curve, poor fit].
Consider `CCCOc1ccc(NC(=O)CC2C(=O)N(CC)C(=S)N2CCCN2CCN(Cc3ccccc3)CC2)cc1` (stereo unspecified), for which the cell number change is -57.3%. Moreover, under setting [2], the AC50 is 13 µM [falling, partial curve]. Further, the concentration at half-maximal activity (AC50) under setting [1] was 18.4 µM [falling, partial curve].
For the compound `COc1ccccc1N1CCN(C(=O)c2cc3c(=O)n4cccc(C)c4nc3s2)CC1`, the cell number change amounted to 7.08%. The AC50 under setting [1] is 0.116 µM [falling, single point].
For the compound `CC1=C(C(N)=O)C(c2ccc3c(c2)OCO3)n2nc(-c3cccc(C)c3)nc2N1` (stereo unspecified), the cell number change amounted to 29.8%. The half-maximal activity concentration (AC50) under setting [1] is 0.411 µM [rising, full curve, poor fit].
Turning to `O=C(Cn1c(=O)oc2ccccc21)Nc1ccc(Cl)cc1Cl`, the cell number change was -3.28%. Besides, the AC50 under setting [1] was 18.4 µM [rising, single point].
For `CCN(CC)S(=O)(=O)c1cccc(-c2nnc(SCCOc3ccc(Cl)cc3)o2)c1`, the cell number change was -2.4%.
On to `CCn1c(CNC(=O)c2ccc3c(c2)OCO3)nnc1SCC(=O)Nc1ccccc1F`, for which the cell number change was -4.27%. Further, the AC50 under setting [1] is 0.00461 µM [rising, full curve, poor fit].
In the case of `C=CCOC(=O)Nc1ccc(Cl)cc1NC(=O)OCC=C`, the cell number change turned out to be 5.36%. For the same compound, the AC50 under setting [2] was 6.51 µM [rising, single point]. For the same compound, the AC50 under setting [1] is 1.84 µM [rising, partial curve, poor fit].
In the case of `Cc1cccc(-c2noc(CN(C)C(=O)c3ccc4c(c3)OCO4)n2)c1`, the cell number change stood at 7.08%.
Consider `CCc1cccc(CC)c1NC(=S)NCCc1c(C)[nH]c2ccccc12`, for which the cell number change was -25.1%. For the same compound, the half-maximal activity concentration (AC50) under setting [2] was 3.66 µM [falling, full curve, poor fit].
In the case of `CCOC(=O)C1CCCN(CC(=O)c2c[nH]c3ccc(C)cc23)C1` (stereo unspecified), the cell number change was determined as 18.2%. The AC50 under setting [1] is 1.64 µM [rising, partial curve].
For the compound `CC1CN(C2CCN(S(=O)(=O)Cc3ccccc3)CC2)CC(C)O1` (stereo unspecified), the cell number change was found to be 1.86%. For the same compound, the concentration at half-maximal activity (AC50) under setting [1] is 0.13 µM [falling, full curve, poor fit].
`COc1cccc(CN2CCC(Oc3ccc(C(=O)NCc4ccccn4)cc3)CC2)c1`: the AC50 under setting [1] is 6.51 µM [rising, single point].
Consider `CC(C)/C=N/NC(=O)c1cc(Br)ccc1O`, for which the cell number change is -10.1%. Under setting [2], the AC50 was 6.51 µM [rising, single point]. Moreover, the AC50 under setting [1] was 1.03 µM [falling, full curve, poor fit].
On to `COc1ccccc1/C=C/CN1CCCC(CO)(Cc2cccc(Cl)c2)C1` (stereo unspecified), for which the cell number change was -37.1%. Also, the AC50 under setting [2] was 32.6 µM [falling, single point]. Moreover, the AC50 under setting [1] is 32.6 µM [falling, single point].
`Cn1c(CNS(=O)(=O)c2cccc(Cl)c2)cc(=O)n(C)c1=O`: the cell number change was -27.4%. The AC50 under setting [2] was 0.366 µM [falling, full curve, poor fit].
For `COc1cc(OC)cc(C(=O)O/N=C(\N)c2ccncc2)c1`, the cell number change stood at 8.38%. In addition, the AC50 under setting [1] was 4.61 µM [rising, single point].
Take `O=[N+]([O-])c1cc(Br)c(O)c(/C=N/Nc2nnnn2-c2cccc3ccccc23)c1`: the cell number change is -13.9%. Besides, under setting [1], the AC50 is 0.13 µM [falling, full curve, poor fit].
With `Cn1nc(-c2ccccc2)c(/C=N/O)c1Cl`, the cell number change is 5.19%.
For `CCn1c(SCC(=O)N2CCN(c3ccccc3)CC2)nnc1-c1cc2cc(Cl)ccc2o1`, the cell number change was -15.9%. Further, the AC50 under setting [1] was 6.51 µM [rising, single point].
Turning to `CCOc1ccccc1C(=O)Nc1ccc(S(=O)(=O)N2CCN(C)CC2)cc1`, the cell number change is -6.32%. For the same compound, under setting [1], the concentration at half-maximal activity (AC50) is 29.1 µM [falling, single point].
Turning to `CC1CC(NC(=O)c2cc3c(=O)n4ccccc4nc3n2C)CC(C)(C)C1` (stereo unspecified), under setting [1], the concentration at half-maximal activity (AC50) is 11.6 µM [falling, partial curve].
For `COc1ccc(F)cc1C(=O)COC(=O)c1n[nH]c(=O)c2ccccc12`, the cell number change is -6.01%. The half-maximal activity concentration (AC50) under setting [1] is 1.3 µM [rising, full curve].
Regarding `COC(=O)C1C(c2ccccc2)C=CC(c2ccccc2)C1C(=O)O` (stereo unspecified), the cell number change is -17.2%. For the same compound, the AC50 under setting [1] was 13 µM [falling, single point].
As to `CCOC(=O)C1CCN(C(=O)c2cccc(S(=O)(=O)Nc3ccc(C)cc3C)c2)CC1`, under setting [2], the AC50 was 6.51 µM [rising, single point].
On to `N#C/C(=C\c1cccs1)C(=O)c1ccccc1Cl`, for which the cell number change is -59.7%. Further, the AC50 under setting [2] was 29.1 µM [falling, single point]. In addition, the AC50 under setting [1] was 25.9 µM [falling, partial curve].
Regarding `Cc1nnsc1C(=O)Nc1cccc(Cl)c1C`, the cell number change amounted to 26.5%. The half-maximal activity concentration (AC50) under setting [1] was 13 µM [rising, partial curve, poor fit].
For the compound `OC(CNC1Cc2ccccc2C1)COc1ccc(F)cc1` (stereo unspecified), the cell number change was 61.7%. The AC50 under setting [2] was 29.1 µM [rising, single point].
Turning to `CCOC(=O)c1c(C)[nH]c(C)c1C(=O)COC(=O)c1ccc(OC)c(OC)c1`, the cell number change was 31.6%.
